Data on 35 substances can be found in patent publication US20170369523A1 (POLYPHOR AG, priority 2008, published 2017).

HELM strings list residues between dots; [ac] is acetyl, [am] amide, other brackets name non-standard units.

This series is described as follows: general procedure: Fmoc solid-phase peptide synthesis; Fmoc-ProO-chlorotritylresin, Fmoc-4Hyp2(tBu)O-chlorotritylresin, Fmoc-OicO-chlorotritylresin, Fmoc-4Mpl(Trt)O-chloro-tri. To be noted: whole synthesis, Analytical HPLC (Acquity UPLC BEH C18).

For “Phe Glu Trp Leu Tyr Trp Glu Phe ^DPro^LPro”, the “final HPLC purity” value amounted to 92%.
In the case of “Phe Glu Ala Leu Asp Trp Glu Phe ^DPro^LPro”, the “final HPLC purity” value is 95%.
With “Phe Glu Trp Leu Asp Trp Glu Phe ^DPro^LPro”, the “final HPLC purity” value is on record as 95%.
As to “Phe Glu Trp(6Cl) Leu Ala Trp Glu Phe ^DPro^LPro”, the “final HPLC purity” value amounted to 95%.
As to “Phe Glu Trp(6Cl) Leu Asp Ala Glu Phe ^DPro^LPro”, the “final HPLC purity” value was 95%.
Then “Asp Cys Phe Trp Lys Tyr Cys Leu ^D4Hyp2^LPro”, with 95%; and “Asp Cys Phe Trp Lys Tyr Cys Cha ^DPro^LPro”, with 90%.
Regarding “PEPTIDE1{D.C.F.[dW].K.Y.C.V.[dP].P}$PEPTIDE1,PEPTIDE1,1:R1-10:R2|PEPTIDE1,PEPTIDE1,2:R3-7:R3$$$V2.0”, the “final HPLC purity” value is reported as 85%.
With “Cha Glu Trp Leu Ala Trp Glu Cha ^DPro^LPro” the figure was 80%.
As for “PEPTIDE1{D.C.Y.W.K.Y.C.L.[dP].P}$PEPTIDE1,PEPTIDE1,1:R1-10:R2|PEPTIDE1,PEPTIDE1,2:R3-7:R3$$$V2.0”, the “final HPLC purity” value is recorded as 90%.
With “Phe Glu Trp Leu Ala Trp Leu Phe ^DPro^LPro” the figure was 95%; with “Cha Glu Trp Leu Ala Trp Glu Phe ^DPro^LPro”, 90%; with “Glu Glu Trp Leu Ala Trp Glu Phe ^DPro^LPro”, 95%.
On to “PEPTIDE1{D.C.F.W.K.Y.C.L.[dS].P}$PEPTIDE1,PEPTIDE1,1:R1-10:R2|PEPTIDE1,PEPTIDE1,2:R3-7:R3$$$V2.0”, for which the “final HPLC purity” value was 95%.
As to “Phe Glu Trp Leu Ala Trp Glu Phe ^DPro^L4Hyp2”, the “final HPLC purity” value was determined as 90%.
Take “Phe Thr Trp(6Cl) Leu Ala Trp Glu Phe ^DPro^L4Mp1”: the “final HPLC purity” value was determined as 85%.
In the case of “Phe Glu Trp Leu Ala Trp Glu Trp ^DPro^LOic”, the “final HPLC purity” value is listed as 95%.
Consider “PEPTIDE1{D.C.F.W.K.Y.C.V.[dP].P}$PEPTIDE1,PEPTIDE1,1:R1-10:R2|PEPTIDE1,PEPTIDE1,2:R3-7:R3$$$V2.0”, for which the “final HPLC purity” value amounted to 90%.
Then “Phe Ala Trp(6Cl) Leu Asp Trp Glu Phe ^DPro^LPro”, with 95%.
With “Phe Glu Trp Leu Gly Trp Glu Phe ^DPro^LPro” the figure was 95%.
With “Phe Glu Trp Gly Ala Trp Glu Phe ^DPro^LPro”, the “final HPLC purity” value is listed as 95%.
With “Phe Glu Trp Tyr Ala Trp Glu Phe ^DPro^LPro”, the “final HPLC purity” value is 95%.
Regarding “Phe Glu Trp Leu Ala Trp Glu Glu(cHx) ^DPro^LPro”, the “final HPLC purity” value is on record as 90%.
“Asp Cys Phe ^DTrp Orn Tyr Cys Val ^DPro^LPro”: the “final HPLC purity” value is 90%.
In the case of “Phe Glu Trp Leu Ala Trp Glu Glu ^DPro^LPro”, the “final HPLC purity” value is 95%.
As for “Phe Leu Trp Leu Ala Trp Glu Phe ^DPro^LPro”, the “final HPLC purity” value came to 95%.
On to “Phe Glu Trp(6Cl) Leu Ala OctG Glu Phe ^DPro^LPro”, for which the “final HPLC purity” value was 90%.
For “Phe Glu Trp Leu ^DAla Trp Glu Phe ^DPro^LPro”, the “final HPLC purity” value is reported as 95%.
Consider “PEPTIDE1{D.C.F.W.K.Y.C.L.[dE].P}$PEPTIDE1,PEPTIDE1,1:R1-10:R2|PEPTIDE1,PEPTIDE1,2:R3-7:R3$$$V2.0”, for which the “final HPLC purity” value is 90%.
In the case of “Phe Glu Trp(6Cl) Leu Asp Trp Ala Phe ^DPro^LPro”, the “final HPLC purity” value turned out to be 95%.
For the substance “Met Glu Trp Leu Asp Trp Glu Phe ^DPro^LPro”, the “final HPLC purity” value is 80%.
For “Phe Glu Trp Leu Ala Trp Tyr Phe ^DPro^LPro”, the “final HPLC purity” value is 95%.
Take “Phe Glu Trp Leu Ala Trp Glu Ile ^DPro^LPro”: the “final HPLC purity” value is on record as 60%.
With “Phe Glu Trp Leu Asp Trp Glu Met ^DPro^LPro” the figure was 80%; with “Phe Glu Trp(6Cl) Cys Ala Trp Glu Phe ^DPro^LPro”, 50%.
